Several values for one entry are separate records, joined by “and”; a condition that tells them apart may be missing. Identical values can stand only once. The list shows a part of the results. The main result of the screen is listed elsewhere. These columns were measured beside it and carry no call. The list favours compounds with an active or inconclusive main result. Words in brackets tell the shape of the fitted curve; partial curves, single points and poor fits give uncertain potencies.

The nature of the assay: IkB Signaling. The following applies: ABC-DLBCL IkBa-CBG/CBR dual luciferase ratio (green luciferase fused to IkBa over red control in OCI-Ly3 lymphoma cells), 4 h; measured here: control luc red channel unless noted. The procedure, abridged: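 In this assay, an IκBα–CBG68 fusion accumulates when IKK-driven degradation is blocked; native CBR normalizes for cell number. OCI-Ly3 cells were treated 4 h with compound and doxycycline, then green and red light read after Chroma-Glo addition.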
What is called AC50 is the concentration at which the activity in the assay is half-maximal. `COc1ccccc1OCc1nnc(SCC(=O)c2cc(Cl)ccc2OC)o1`: the half-maximal activity concentration (AC50) is 39.8 µM [falling, partial curve].
The value for `CC(C)n1c(C(=O)OCC(=O)NCc2ccc3c(c2)OCO3)cc2occc21` was 39.8 µM [falling, single point].
The value for `CCOC(=O)c1c(Nc2cc(C)cc(C)c2)nnc(-c2ccccc2)c1-c1ccccc1` was 12.6 µM [falling, partial curve]; that for `Cc1cc(NC(=O)Cn2nnc3sc4c(c3c2=O)CCC(C(C)(C)C)C4)no1` (configuration not stated) was 31.6 µM [falling, single point].
On to `CC1CCN(S(=O)(=O)c2ccc3nc(Nc4ccc(C#N)cc4)ccc3c2)CC1`, for which the AC50 is 20 µM [falling, single point].
The value for `O=C(O)c1cc([N+](=O)[O-])ccc1NCCCc1ccccc1` was 631 nM [falling, full curve] and 126 nM [falling, full curve].
In the case of `O=C(NCC(c1cccnc1)N1CCc2ccccc2C1)C(=O)Nc1ccccc1` (configuration not stated), the AC50 is 3.16 µM [falling, partial curve, poor fit].
To `COc1ccccc1CNS(=O)(=O)c1ccc(F)c(C(=O)Nc2cc(Cl)ccc2OC)c1` belongs 10 µM [falling, partial curve]; to `COc1ccc(NC(=O)C2CCCN(S(=O)(=O)c3cccs3)C2)cc1` (configuration not stated), 20 µM [falling, partial curve]; to `CCN1CCN(C(c2ccccc2)c2c(O)cc(C)n(Cc3ccco3)c2=O)CC1` (configuration not stated), 25.1 µM [falling, partial curve, poor fit].
Consider `N#C/C(=C/c1ccc(Cl)cc1Cl)c1nc2ccccc2c(=O)[nH]1`, for which the half-maximal activity concentration (AC50) is 0.316 µM [falling, full curve].
The value for `COC(=O)c1c(N)n(-c2ccc(OC)c(Cl)c2)c2nc3ccccc3nc12` was 0.398 µM [rising, full curve].
The value for `O=C(Nc1ccccc1F)c1ccc(-c2ccccc2)s1` was 0.00316 µM [falling, full curve].
Consider `CCN(CC)C(=O)c1sc2c(c1C)c(=O)n(-c1ccc(Cl)c(Cl)c1)c(=O)n2CC(=O)Nc1cccc(OC)c1`, for which the AC50 was 10 µM [falling, partial curve].
The value for `CCOC(=O)c1nnn(CC(=O)NC(=O)Nc2cccc(CC)c2)c1C(=O)OCC` was 25.1 µM [falling, partial curve]; that for `CSc1nsc(SCC(=O)N2CCCc3ccccc32)n1` was 20 µM [falling, single point]; that for `COc1ccc(NC(=O)CSc2nnc(-c3ccoc3C)n2CCc2ccccc2)cc1` was 10 µM [falling, partial curve].

The record behind these values is PubChem BioAssay AID445 (National Center for Advancing Translational Sciences (NCATS), 2006).
